Positions count from the first letter of the chain named. In names and notes the source's numbering stands. These are yes or no findings as the source states them, for the method shown. In cells and extracts the contact can be indirect. Some entries that bind do so weakly or less than the wild type.
Experiments:
[1] = biological target: T1, Munc18c Y218/219F (mouse) (UniProt Q60770); assay: co-IP; Munc18c immunoprecipitated from NP-40 lysates of 3T3-L1 adipocytes (WT, Munc18c knockdown, reconstituted R, Y218/219F, Y521F), basal and insulin-stimulated; immunoblot for PTP1B and syntaxin4
T1 sequence: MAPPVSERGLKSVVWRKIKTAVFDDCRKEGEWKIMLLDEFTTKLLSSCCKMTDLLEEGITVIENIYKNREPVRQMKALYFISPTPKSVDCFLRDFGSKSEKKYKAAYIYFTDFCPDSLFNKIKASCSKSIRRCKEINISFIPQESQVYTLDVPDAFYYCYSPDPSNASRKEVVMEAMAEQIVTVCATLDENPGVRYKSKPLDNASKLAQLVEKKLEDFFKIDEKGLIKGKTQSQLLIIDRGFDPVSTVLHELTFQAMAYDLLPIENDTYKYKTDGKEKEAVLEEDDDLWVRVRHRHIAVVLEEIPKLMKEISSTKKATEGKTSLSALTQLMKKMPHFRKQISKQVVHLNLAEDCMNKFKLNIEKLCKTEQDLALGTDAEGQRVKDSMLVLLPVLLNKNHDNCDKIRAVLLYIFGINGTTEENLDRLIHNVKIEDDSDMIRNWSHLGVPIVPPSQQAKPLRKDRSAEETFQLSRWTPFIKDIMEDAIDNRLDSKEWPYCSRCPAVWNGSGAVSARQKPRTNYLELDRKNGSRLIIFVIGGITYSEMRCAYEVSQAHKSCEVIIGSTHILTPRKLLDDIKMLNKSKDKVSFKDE

Sequences of proteins named here, by UniProt entry; tags and fusion partners are left off.
UniProt P70452: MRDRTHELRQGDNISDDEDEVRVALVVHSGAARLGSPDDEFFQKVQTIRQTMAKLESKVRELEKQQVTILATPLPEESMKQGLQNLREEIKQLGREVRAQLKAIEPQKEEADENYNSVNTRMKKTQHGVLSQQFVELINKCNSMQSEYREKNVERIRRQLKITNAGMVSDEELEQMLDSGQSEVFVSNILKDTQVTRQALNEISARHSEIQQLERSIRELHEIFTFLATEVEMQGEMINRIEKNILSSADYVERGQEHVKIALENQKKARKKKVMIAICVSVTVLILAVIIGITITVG

Munc18c Y521F (mouse) = biological target: T2, Munc18c Y521F (mouse) (UniProt Q60770); assay: as above
T2 sequence: T1 sequence with F218Y, F219Y, Y521F

[2] = biological target: T3, Munc18c (endogenous) (mouse (endogenous in 3T3-L1 and PTP1B KO adipocytes)) (UniProt Q60770); assay: as above
T3 sequence: T1 sequence with F218Y, F219Y

[3] = biological target: syntaxin4 (mouse (endogenous in 3T3-L1 and PTP1B KO adipocytes)) (UniProt P70452); assay: co-IP; syntaxin4 immunoprecipitated from lysates of 3T3-L1 adipocytes (WT, Munc18c knockdown, reconstituted R, Y218/219F, Y521F), basal and insulin-stimulated; immunoblot for Munc18c and GLUT4
[4] = biological target: T4, Protein-tyrosine phosphatase 1B substrate-trapping mutant D181A (UniProt P18031); assay: co-IP; PTP1B immunoprecipitated from lysates of PTP1B KO adipocytes reconstituted with PTP1B D/A, basal and insulin-stimulated; immunoblot for Munc18c; substrate trapping, 1% NP40 buffer without orthovanadate
T4 sequence: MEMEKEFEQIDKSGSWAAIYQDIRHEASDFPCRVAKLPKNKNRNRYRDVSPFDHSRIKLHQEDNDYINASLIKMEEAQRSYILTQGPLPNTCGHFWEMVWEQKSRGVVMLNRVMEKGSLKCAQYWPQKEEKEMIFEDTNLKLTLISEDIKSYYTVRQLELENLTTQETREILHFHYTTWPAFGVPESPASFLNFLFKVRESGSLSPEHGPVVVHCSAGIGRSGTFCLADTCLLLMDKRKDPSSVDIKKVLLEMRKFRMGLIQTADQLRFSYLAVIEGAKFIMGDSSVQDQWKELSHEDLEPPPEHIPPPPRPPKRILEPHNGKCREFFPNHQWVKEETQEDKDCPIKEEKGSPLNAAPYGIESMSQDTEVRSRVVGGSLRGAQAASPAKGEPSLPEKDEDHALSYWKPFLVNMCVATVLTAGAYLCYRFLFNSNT

[5] = biological target: T4, Protein-tyrosine phosphatase 1B substrate-trapping mutant D181A; assay: co-IP; as a3, insulin-stimulated cells with PTP1B D/A treated with pervanadate
[6] = biological target: T4, Protein-tyrosine phosphatase 1B substrate-trapping mutant D181A; assay: co-IP; PTP1B immunoprecipitated with FG6 from 3T3-L1 cells (WT or Munc18c knockdown reconstituted with Y/F mutants) transiently transfected with PTP1B WT or D/A, starved and insulin-stimulated, lysed in 1% NP40 buffer without orthovanadate; immunoblot for Munc18c

B1: PTP1B (endogenous in 3T3-L1 adipocytes) (enzyme, UniProt P35821 1-432)
chain: MEMEKEFEEIDKAGNWAAIYQDIRHEASDFPCKVAKLPKNKNRNRYRDVSPFDHSRIKLHQEDNDYINASLIKMEEAQRSYILTQGPLPNTCGHFWEMVWEQKSRGVVMLNRIMEKGSLKCAQYWPQQEEKEMVFDDTGLKLTLISEDVKSYYTVRQLELENLTTKETREILHFHYTTWPDFGVPESPASFLNFLFKVRESGSLSLEHGPIVVHCSAGIGRSGTFCLADTCLLLMDKRKDPSSVDIKKVLLEMRRFRMGLIQTADQLRFSYLAVIEGAKFIMGDSSVQDQWKELSREDLDLPPEHVPPPPRPPKRTLEPHNGKCKELFSSHQWVSEETCGDEDSLAREEGRAQSSAMHSVSSMSPDTEVRRRMVGGGLQSAQASVPTEEELSSTEEEHKAHWPSHWKPFLVNVCMATLLATGAYLCYRVCFH
Question: For B1, which binding [1] is on record?
Answer: Its binding is “binds”.

Question: And the binding (Munc18c Y521F (mouse))?
Answer: Its binding is “binds”.

Question: What about the binding [2] of the same binder?
Answer: The binding was “binds”.

B2: GLUT4 (protein, UniProt P14142 1-509)
chain: MPSGFQQIGSDDGEPPRQRVTGTLVLAVFSAVLGSLQFGYNIGVINAPQKVIEQSYNATWLGRQGPGGPDSIPQGTLTTLWALSVAIFSVGGMISSFLIGIISQWLGRKRAMLANNVLAVLGGALMGLANAAASYEILILGRFLIGAYSGLTSGLVPMYVGEIAPTHLRGALGTLNQLAIVIGILVAQVLGLESMLGTATLWPLLLALTVLPALLQLILLPFCPESPRYLYIIRNLEGPARKSLKRLTGWADVSDALAELKDEKRKLERERPMSLLQLLGSRTHRQPLIIAVVLQLSQQLSGINAVFYYSTSIFESAGVGQPAYATIGAGVVNTVFTLVSVLLVERAGRRTLHLLGLAGMCGCAILMTVALLLLERVPAMSYVSIVAIFGFVAFFEIGPGPIPWFIVAELFSQGPRPAAMAVAGFSNWTCNFIVGMGFQYVADAMGPYVFLLFAVLLLGFFIFTFLKVPETRGRTFDQISAAFRRTPSLLEQEVKPSTELEYLGPDEND
Question: With B2 as the binder, how does the binding [3] read?
Answer: The binding was “binds”.

B3: Munc18c (endogenous) (protein, UniProt Q60770 1-592)
chain: T1 sequence with F218Y, F219Y
Question: How did the binding [4] turn out when B3 was run?
Answer: The binding was “binds”.

Question: What about the binding [5] of the same binder?
Answer: The binding was “no binding (condition: treatment with pervanadate)”.

Question: And the binding [6]?
Answer: The binding was “binds”.

B4: Munc18c Y218/219F (protein, UniProt Q60770 1-592)
chain: T1 sequence
Question: Which binding [6] does the source give for B4 here?
Answer: The binding was “binds”.

B5: Munc18c Y521F (protein, UniProt Q60770 1-592)
chain: T1 sequence with F218Y, F219Y, Y521F
Question: Which binding [6] does the source give for B5 here?
Answer: The binding was “binds”.
